The supplement of paper PMC12067093, “Discovery and optimisation of a covalent ligand for TRIM25 and its application to targeted protein ubiquitination” (Chemical Science, 2025)
The other results are listed elsewhere or left out.

Sequences of proteins named here, by UniProt entry; tags and fusion partners are left off. A change or cut given only in a name is not applied to a line headed by its entry.
UniProt P46939: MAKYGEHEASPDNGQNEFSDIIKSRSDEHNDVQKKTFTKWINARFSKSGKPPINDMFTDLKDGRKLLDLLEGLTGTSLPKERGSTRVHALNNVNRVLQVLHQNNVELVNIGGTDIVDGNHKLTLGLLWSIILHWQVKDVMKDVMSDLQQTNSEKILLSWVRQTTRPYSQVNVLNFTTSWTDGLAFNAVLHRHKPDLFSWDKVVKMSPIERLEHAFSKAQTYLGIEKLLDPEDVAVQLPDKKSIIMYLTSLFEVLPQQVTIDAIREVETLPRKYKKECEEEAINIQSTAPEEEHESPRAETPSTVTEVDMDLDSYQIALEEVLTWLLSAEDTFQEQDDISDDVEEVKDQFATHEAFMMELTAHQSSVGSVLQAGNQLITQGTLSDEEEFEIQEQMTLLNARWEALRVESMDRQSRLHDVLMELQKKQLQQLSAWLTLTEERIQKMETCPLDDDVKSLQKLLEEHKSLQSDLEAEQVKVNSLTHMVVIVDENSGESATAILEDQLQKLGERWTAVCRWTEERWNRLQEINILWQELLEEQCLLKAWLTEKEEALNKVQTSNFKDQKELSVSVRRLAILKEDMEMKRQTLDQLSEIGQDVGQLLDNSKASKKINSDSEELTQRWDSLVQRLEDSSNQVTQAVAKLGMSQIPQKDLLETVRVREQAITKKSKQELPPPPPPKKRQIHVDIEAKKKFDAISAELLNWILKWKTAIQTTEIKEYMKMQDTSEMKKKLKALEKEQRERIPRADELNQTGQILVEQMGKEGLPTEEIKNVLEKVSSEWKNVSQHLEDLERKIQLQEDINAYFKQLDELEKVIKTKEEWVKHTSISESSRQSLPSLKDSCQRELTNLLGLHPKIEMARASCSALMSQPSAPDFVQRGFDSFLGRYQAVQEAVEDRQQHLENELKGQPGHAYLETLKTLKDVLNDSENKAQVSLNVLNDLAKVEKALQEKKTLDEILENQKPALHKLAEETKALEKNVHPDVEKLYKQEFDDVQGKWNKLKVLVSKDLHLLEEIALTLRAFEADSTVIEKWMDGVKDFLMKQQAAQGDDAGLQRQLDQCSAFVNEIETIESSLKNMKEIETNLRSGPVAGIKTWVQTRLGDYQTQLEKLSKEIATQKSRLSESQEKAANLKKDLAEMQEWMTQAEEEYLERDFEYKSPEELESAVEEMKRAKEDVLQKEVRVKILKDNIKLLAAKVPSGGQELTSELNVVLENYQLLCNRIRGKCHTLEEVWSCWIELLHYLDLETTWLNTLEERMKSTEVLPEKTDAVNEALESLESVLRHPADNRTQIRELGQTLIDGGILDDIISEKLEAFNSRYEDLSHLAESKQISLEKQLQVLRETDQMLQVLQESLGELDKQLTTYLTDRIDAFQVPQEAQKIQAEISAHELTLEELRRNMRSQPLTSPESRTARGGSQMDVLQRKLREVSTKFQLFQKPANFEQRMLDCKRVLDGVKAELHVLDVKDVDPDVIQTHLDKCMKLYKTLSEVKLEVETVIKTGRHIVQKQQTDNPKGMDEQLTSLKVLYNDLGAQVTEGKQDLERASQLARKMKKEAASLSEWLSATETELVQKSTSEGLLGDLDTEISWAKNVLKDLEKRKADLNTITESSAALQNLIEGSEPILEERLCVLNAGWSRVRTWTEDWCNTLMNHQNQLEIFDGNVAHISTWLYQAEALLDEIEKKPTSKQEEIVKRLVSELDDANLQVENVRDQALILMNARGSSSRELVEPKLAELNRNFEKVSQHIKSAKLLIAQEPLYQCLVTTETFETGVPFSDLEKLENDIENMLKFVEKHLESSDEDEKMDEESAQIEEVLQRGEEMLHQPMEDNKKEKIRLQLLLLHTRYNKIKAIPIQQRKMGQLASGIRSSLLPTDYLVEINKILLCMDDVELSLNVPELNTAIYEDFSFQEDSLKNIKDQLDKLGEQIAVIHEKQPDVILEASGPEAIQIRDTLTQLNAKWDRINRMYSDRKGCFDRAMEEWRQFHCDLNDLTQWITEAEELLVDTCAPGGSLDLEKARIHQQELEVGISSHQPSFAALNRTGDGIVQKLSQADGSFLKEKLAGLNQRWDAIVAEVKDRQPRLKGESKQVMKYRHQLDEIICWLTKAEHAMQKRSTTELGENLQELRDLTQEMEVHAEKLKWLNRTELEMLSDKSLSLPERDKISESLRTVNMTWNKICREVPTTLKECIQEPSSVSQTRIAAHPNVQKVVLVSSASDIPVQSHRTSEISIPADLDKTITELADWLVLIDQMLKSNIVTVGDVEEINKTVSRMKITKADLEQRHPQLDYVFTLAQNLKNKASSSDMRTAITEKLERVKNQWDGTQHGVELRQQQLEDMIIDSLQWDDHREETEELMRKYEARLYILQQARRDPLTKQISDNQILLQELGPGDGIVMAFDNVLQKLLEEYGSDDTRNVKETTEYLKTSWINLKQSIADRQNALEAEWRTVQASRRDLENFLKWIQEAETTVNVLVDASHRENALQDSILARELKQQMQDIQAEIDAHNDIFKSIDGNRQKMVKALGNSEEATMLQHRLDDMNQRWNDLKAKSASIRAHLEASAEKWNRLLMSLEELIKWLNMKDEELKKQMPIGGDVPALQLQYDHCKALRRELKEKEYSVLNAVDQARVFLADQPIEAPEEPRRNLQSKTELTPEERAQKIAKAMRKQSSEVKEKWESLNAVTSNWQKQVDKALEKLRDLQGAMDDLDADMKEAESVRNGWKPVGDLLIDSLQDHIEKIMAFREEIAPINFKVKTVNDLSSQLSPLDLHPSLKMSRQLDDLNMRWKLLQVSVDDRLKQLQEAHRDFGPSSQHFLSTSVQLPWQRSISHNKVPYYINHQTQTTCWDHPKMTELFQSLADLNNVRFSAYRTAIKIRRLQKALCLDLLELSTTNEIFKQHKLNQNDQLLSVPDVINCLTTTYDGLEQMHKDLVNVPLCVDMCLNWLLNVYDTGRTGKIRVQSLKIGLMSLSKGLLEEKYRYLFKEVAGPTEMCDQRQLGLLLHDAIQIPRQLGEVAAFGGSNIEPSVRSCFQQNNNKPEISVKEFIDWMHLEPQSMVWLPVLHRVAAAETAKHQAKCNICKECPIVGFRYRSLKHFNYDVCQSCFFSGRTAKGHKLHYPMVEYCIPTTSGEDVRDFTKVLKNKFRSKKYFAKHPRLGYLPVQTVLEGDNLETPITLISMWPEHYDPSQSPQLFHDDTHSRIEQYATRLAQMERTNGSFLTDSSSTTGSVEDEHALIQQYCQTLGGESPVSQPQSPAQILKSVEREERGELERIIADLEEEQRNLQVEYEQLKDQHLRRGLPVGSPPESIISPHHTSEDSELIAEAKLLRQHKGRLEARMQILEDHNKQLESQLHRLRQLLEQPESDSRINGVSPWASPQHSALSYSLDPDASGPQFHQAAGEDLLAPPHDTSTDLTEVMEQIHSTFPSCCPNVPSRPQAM
UniProt P55072, whole entry, looked up: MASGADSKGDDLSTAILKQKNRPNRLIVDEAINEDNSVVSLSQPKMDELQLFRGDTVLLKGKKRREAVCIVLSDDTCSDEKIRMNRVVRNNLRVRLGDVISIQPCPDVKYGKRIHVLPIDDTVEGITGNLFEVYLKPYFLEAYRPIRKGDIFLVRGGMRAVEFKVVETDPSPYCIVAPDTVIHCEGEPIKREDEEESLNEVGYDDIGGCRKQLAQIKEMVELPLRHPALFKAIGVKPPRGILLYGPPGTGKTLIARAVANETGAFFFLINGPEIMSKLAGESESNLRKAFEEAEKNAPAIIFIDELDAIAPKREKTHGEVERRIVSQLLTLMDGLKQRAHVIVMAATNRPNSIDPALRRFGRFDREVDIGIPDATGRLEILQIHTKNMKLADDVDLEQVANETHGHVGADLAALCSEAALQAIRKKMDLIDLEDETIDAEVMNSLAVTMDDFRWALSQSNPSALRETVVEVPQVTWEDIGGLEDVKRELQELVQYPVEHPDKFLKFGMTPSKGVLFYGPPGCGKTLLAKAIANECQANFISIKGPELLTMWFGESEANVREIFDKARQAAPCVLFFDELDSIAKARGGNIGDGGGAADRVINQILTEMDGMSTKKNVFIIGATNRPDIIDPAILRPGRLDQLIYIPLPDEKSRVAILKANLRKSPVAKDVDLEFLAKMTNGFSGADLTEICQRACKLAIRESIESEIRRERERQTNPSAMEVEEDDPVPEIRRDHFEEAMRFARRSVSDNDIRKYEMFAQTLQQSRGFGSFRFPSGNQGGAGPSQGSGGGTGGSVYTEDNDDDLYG
UniProt Q69YN4: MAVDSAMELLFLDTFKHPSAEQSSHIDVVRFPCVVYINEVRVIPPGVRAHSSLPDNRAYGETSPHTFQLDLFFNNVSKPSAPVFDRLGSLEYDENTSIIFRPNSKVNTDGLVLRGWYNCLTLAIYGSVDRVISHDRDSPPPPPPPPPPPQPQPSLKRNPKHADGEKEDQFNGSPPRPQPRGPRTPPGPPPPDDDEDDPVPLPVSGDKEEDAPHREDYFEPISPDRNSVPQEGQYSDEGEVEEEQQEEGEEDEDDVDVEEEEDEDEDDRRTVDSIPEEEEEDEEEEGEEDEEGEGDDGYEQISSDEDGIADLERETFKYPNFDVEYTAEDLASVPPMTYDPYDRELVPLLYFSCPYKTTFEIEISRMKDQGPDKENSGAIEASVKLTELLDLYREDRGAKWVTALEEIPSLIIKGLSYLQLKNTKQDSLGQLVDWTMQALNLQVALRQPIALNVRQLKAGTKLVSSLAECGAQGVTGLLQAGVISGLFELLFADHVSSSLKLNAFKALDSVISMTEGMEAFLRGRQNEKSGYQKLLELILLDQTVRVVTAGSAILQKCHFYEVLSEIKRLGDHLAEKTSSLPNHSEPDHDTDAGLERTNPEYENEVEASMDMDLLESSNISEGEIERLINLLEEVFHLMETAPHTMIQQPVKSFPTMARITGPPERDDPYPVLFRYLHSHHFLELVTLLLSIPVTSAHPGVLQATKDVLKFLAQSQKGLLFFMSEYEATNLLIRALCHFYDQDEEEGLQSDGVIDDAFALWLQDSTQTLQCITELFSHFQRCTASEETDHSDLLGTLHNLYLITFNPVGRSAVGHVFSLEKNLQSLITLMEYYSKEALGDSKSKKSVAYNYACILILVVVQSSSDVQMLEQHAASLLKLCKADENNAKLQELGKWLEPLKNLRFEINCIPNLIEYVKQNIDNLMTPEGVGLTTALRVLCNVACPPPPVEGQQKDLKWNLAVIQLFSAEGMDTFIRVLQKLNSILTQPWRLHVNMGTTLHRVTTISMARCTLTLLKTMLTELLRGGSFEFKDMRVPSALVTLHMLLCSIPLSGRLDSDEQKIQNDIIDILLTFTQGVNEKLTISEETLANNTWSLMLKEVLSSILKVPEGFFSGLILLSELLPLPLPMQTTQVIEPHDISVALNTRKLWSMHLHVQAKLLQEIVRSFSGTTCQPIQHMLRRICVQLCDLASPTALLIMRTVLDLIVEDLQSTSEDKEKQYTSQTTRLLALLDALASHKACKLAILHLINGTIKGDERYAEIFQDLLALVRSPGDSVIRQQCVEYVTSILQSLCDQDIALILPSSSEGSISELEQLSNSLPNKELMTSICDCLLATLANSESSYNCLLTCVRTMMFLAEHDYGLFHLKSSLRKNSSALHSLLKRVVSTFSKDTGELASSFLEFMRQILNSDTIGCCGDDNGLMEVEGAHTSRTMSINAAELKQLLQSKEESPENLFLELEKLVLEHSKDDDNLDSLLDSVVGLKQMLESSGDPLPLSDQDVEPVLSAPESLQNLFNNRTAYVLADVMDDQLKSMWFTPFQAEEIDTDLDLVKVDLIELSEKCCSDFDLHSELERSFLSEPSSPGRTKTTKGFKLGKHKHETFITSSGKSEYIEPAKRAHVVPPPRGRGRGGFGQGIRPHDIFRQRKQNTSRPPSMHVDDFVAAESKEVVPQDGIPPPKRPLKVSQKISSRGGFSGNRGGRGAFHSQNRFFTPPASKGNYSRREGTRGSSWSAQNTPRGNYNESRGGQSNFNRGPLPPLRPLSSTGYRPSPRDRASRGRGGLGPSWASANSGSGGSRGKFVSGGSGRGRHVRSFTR
UniProt Q8NEZ2: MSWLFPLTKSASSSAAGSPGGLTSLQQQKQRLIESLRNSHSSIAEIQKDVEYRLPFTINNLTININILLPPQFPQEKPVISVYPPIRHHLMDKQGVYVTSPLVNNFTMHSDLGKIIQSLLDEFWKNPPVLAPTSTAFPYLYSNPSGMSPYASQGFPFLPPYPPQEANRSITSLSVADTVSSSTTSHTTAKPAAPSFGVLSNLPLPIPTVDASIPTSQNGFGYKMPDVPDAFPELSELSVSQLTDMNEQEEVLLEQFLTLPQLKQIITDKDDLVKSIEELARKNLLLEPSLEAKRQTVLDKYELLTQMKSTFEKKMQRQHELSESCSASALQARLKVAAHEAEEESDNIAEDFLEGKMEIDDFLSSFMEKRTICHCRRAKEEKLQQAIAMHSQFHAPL

Compound: Cc1cc(ccc1-c1ccccc1)C(=O)N1CCCN(CC1)C(=O)CCl [compound 10]
Experiment: probe-labelled cysteine peptide fold change vs DMSO (competition) (log2 fold change); higher = less target engagement (more negative = stronger competition)
Details: THP-1, incubation time: 4 h
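Also: competitive profiling in live THP-1 cells: cysteine peptides tagged with an iodoacetamide desthiobiotin (IA-DTB) probe, intensity after compound treatment relative to DMSO-treated cells.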

Row | Target | probe-labelled cysteine peptide fold change (10 µM) | probe-labelled cysteine peptide fold change (50 µM)
1 | VPS13C_Q709C8_1617_CNIADIK (UniProt Q709C8) | -0.0556 | -0.131
2 | USP9X_Q93008_2398_CMVALFSNCPVAYQILQGNGDLK (UniProt Q93008) | 0.129 | 0.0717
3 | UTP18_Q9Y5J1_90_CLEELVFGDVENDEDALLRR (UniProt Q9Y5J1) | 0.219 | -0.062
4 | USP9X_Q93008_842_ASYDTLCVLDGDKDSVNCAR (UniProt Q93008) | 0.0562 | -0.694
5 | UTP6_Q9NYH9_566_EELNHPLGRPENCGQIYWR (UniProt Q9NYH9) | 0.0173 | 0.186
6 | UTRN_P46939_2986_EVAGPTEMCDQR (UniProt P46939) | -0.136 | 0.0947
7 | VIM_P08670_328_QVQSLTCEVDALK (UniProt P08670) | -0.154 | -0.0332
8 | VCP_P55072_522_GVLFYGPPGCGK (UniProt P55072) | -0.0375 | -0.00445
9 | VPS13C_Q709C8_1098_LNAFCVIVCNEK (UniProt Q709C8) | -0.0962 | 0.0577
10 | VKORC1L1_Q8N0U8_58_CSAALASR (UniProt Q8N0U8) | -0.141 | -0.127
11 | VCP_P55072_209_EDEEESLNEVGYDDIGGCR (UniProt P55072) | -0.0294 | -0.107
12 | VCPIP1_Q96JH7_472_CLLCGALSELHVPPEWLAPGGK (UniProt Q96JH7) | 0.086 | 0.155
13 | VPS18_Q9P253_741_QCADLPEEDEELR (UniProt Q9P253) | 0.179 | 0.173
14 | UTRN_P46939_1059_QLDQCSAFVNEIETIESSLK (UniProt P46939) | 0.274 | -0.00803
15 | VAV1_P15498_71_EVNLRPQMSQFLCLK (UniProt P15498) | -0.258 | -0.0872
16 | WAC_Q9BTA9_15_LSDGCHDR (UniProt Q9BTA9) | 0.00753 | -0.206
17 | WAPL_Q7Z5K2_133_CFPLEDTLLGK (UniProt Q7Z5K2) | -0.425 | -0.102
18 | VPS35_Q96QK1_653_TQCALAASK (UniProt Q96QK1) | -0.0881 | -0.131
19 | VAV2_P52735_44_DGVLLCQLLHNLSPGSIDLK (UniProt P52735) | -0.151 | 0.39
20 | VARS_P26640_381_GETTLWNPGCDHAGIATQVVVEK (UniProt P26640) | -0.0563 | -0.178
21 | VIRMA_Q69YN4_1008_CTLTLLK (UniProt Q69YN4) | 0.0155 | 0.295
22 | VPS35_Q96QK1_673_AVSTCAHLFWSGR (UniProt Q96QK1) | -0.166 | 0.0955
23 | VPS37A_Q8NEZ2_375_TICHCR (UniProt Q8NEZ2) | 0.41 | 1.08
24 | VPS18_Q9P253_433_EADFCFR (UniProt Q9P253) | -0.121 | -0.186
25 | UVRAG_Q9P2Y5_186_TILLQVDQNCVR (UniProt Q9P2Y5) | -0.089 | -0.0238
26 | VPS54_Q9P1Q0_653_LMETFILDTEQICGR (UniProt Q9P1Q0) | -0.0143 | 0.122
27 | VIRMA_Q69YN4_1559_CCSDFDLHSELER (UniProt Q69YN4) | -0.327 | -0.267
28 | VPS18_Q9P253_741_QCADLPEEDEELRK (UniProt Q9P253) | -0.238 | 0.0222

Some values from above.
probe-labelled cysteine peptide fold change (10 µM) with VPS18_Q9P253_741_QCADLPEEDEELRK (UniProt Q9P253) is entered as -0.238
probe-labelled cysteine peptide fold change (10 µM) with VIRMA_Q69YN4_1008_CTLTLLK (UniProt Q69YN4) is entered as 0.0155
